The list shows a part of the results. Shown are side measurements of this screen, not its main read-out; they come without a call. Compounds called inactive in the main read-out are mostly missing here. The note in brackets gives the kind of curve behind each potency; many fits are weak.

A short description of the assay: qHTS Assay for Lipid Storage Modulators in Drosophila S3 Cells.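 For cell number change: cells counted by Cell Tracker Red CMTPX staining in the red channel.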 The following applies: BODIPY lipid droplet fluorescence, 18-24 h; for cell number change: measured here: cell count max response, cells fed with added oleic acid. The essentials: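 Drosophila S3 cells loaded with oleic acid (400 uM, as added) and compounds at several concentrations; lipid droplets imaged by 488-nm laser-scanning cytometry, 500–530 nm intensity and object ratio to cell channel. Percent activity normalized to 20 uM Triacsin C.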

[1] abbreviates: measured here: cell number channel AC50, cells fed with added oleic acid.
[2] abbreviates: measured here: lipid fluorescence (Fed channel) AC50, cells fed with added oleic acid.

Turning to `O/N=C/C1=C(Cl)c2ccccc2CC1`, the cell number change was found to be 2.57%.

For orientation: AC50 means the midpoint of the concentration-response curve, whichever way the signal moves. Low values mean activity at low concentration, high ones activity only at high concentration. Take `O=C(CSc1ncnc2ccccc12)Nc1cc(S(=O)(=O)N2CCCCC2)ccc1Cl`: the cell number change was -11.6%. Under setting [1], the AC50 was 4.61 µM [rising, single point]. In addition, the AC50 under setting [2] was 0.92 µM [rising, full curve].

Regarding `Cc1cc2nc(SCCN3CCCC3)[nH]c2cc1C`, the cell number change was -30.7%. For the same compound, under setting [1], the half-maximal activity concentration (AC50) was 32.6 µM [falling, single point].

With `O=C(/C=C/c1ccccc1)OCCCN=C1NS(=O)(=O)c2ccccc21`, the cell number change is -2.02%. Further, the AC50 under setting [2] was 8.2 µM [falling, single point].

As for `C/C(CCc1ccc2c(c1)OCO2)=N\NC(=O)c1ccccc1Br`, the cell number change was found to be 18.8%. In addition, the half-maximal activity concentration (AC50) under setting [1] is 4.61 µM [rising, single point]. The half-maximal activity concentration (AC50) under setting [2] was 6.51 µM [rising, single point].

Consider `O=C(Nc1ccc2c(c1)OCO2)C1CCCN(c2nc3ccccc3s2)C1` (stereo not drawn), for which the cell number change is -8.03%.

With `Cc1ccccc1S(=O)(=O)Cc1ccc(C(=O)NC2CCCC2)o1`, the cell number change turned out to be 64.2%. Moreover, the half-maximal activity concentration (AC50) under setting [1] is 16.4 µM [rising, single point].

Turning to `CNc1nc(Oc2ccccc2C(=O)OC)nc(SC)n1`, the cell number change turned out to be 2.99%. Moreover, the half-maximal activity concentration (AC50) under setting [2] was 11.6 µM [rising, single point].

Take `COc1ccc(C(c2c(C)n(C)n(-c3ccccc3)c2=O)c2c(C)n(C)n(-c3ccccc3)c2=O)cc1O`: the AC50 under setting [2] is 29.1 µM [falling, single point].

Consider `CCn1cc(C(=O)O)c(=O)c2cc(F)c(N3CCN(C(=S)NC(=O)c4ccc(OC)cc4)CC3)cc21`, for which the cell number change turned out to be 10.3%. Besides, under setting [2], the concentration at half-maximal activity (AC50) is 6.51 µM [rising, single point].

With `Cc1oc2c(C)c(O)ccc2c(=O)c1-c1cnn(-c2ccccc2)c1`, the cell number change is -39.7%. Also, the AC50 under setting [1] was 29.1 µM [falling, single point]. The AC50 under setting [2] is 29.1 µM [falling, single point].

In the case of `CC(C)=C1C(=O)NN(c2ccc(F)c(Cl)c2)C1=O`, the cell number change was 37.5%. Besides, the AC50 under setting [1] was 20.6 µM [rising, single point].

In the case of `CCn1c(=O)c2cc(C(=O)NCCN3CCOCC3)sc2c2ccccc21`, the cell number change was -22.2%. Moreover, the AC50 under setting [2] was 5.8 µM [falling, partial curve].

Take `COc1ccccc1NC(=O)CN1CCN(C(=O)C2CCCO2)CC1` (stereo not drawn): the cell number change was -3.04%.

Regarding `C/C(=N\NC(=O)c1ccc(N2CCCC2=O)cc1)c1ccc(O)cc1O`, the cell number change was -23.8%.

Regarding `CC(C)CN(C(=O)COC(=O)c1ccc2ccccc2c1)c1c(N)n(Cc2ccccc2)c(=O)[nH]c1=O`, the cell number change turned out to be 63.9%. Besides, the AC50 under setting [1] was 3.66 µM [rising, full curve].

Consider `O=C1Nc2ccc(Br)cc2C1Cc1ccccc1F` (stereo not drawn), for which the cell number change is -33.5%. Besides, the concentration at half-maximal activity (AC50) under setting [1] was 7.31 µM [falling, partial curve]. Besides, the AC50 under setting [2] is 29.1 µM [falling, single point].

Regarding `CN1CCN(S(=O)(=O)c2ccc(NC(=S)NC(=O)c3ccccc3)cc2)CC1`, the cell number change is 35.5%. Under setting [1], the AC50 is 0.651 µM [rising, full curve]. Besides, the concentration at half-maximal activity (AC50) under setting [2] is 1.84 µM [rising, full curve].

In the case of `CCSc1ccc([C@@H]2[C@@H]3C(=O)N(CC)C(=O)[C@@H]3[C@]3(C(=O)OC)CCCCN23)cc1OC`, the cell number change is -19.9%. The concentration at half-maximal activity (AC50) under setting [2] was 0.58 µM [falling, full curve, poor fit].

Turning to `CSC1=NC(C(Cl)(Cl)Cl)N=C(c2ccccc2)N1` (stereo not drawn), the cell number change was found to be 7.82%.

`O=c1c(Cc2ccc(F)cc2)c(O)ccn1CCCN1CCOCC1`: the cell number change was -27.4%. Further, the AC50 under setting [2] is 35.5 µM [falling, single point].

Take `COc1ccc([C@H]2CC(=O)C=C(c3cc(C=O)ccc3OC)C2)cc1OC`: the cell number change was -8.66%. Further, the half-maximal activity concentration (AC50) under setting [2] was 4.11 µM [falling, single point].

For `O=C(CCN1C(=O)C2C3CCC(C3)C2C1=O)Nc1ccc(Br)cc1` (stereo not drawn), the cell number change is -1.34%. The AC50 under setting [1] is 6.51 µM [rising, partial curve, poor fit]. For the same compound, the concentration at half-maximal activity (AC50) under setting [2] was 2.31 µM [rising, single point].

Regarding `CC1CCN(CC(=O)N2CCCc3c2c(=O)oc2ccc(OCc4ccccc4)cc32)CC1`, the cell number change amounted to 5.18%. Further, the AC50 under setting [2] was 29.1 µM [rising, single point].

As for `CCOC(=O)c1cn(Cc2ccc(Cl)cc2Cl)c2cc(C)nn2c1=O`, the cell number change is -46.6%. For the same compound, under setting [1], the AC50 is 5.8 µM [falling, full curve]. In addition, the AC50 under setting [2] is 6.51 µM [falling, full curve].

Regarding `O=C(N1CCN(c2cccc(Cl)c2)CC1)C1(S(=O)(=O)c2ccc(Cl)cc2)CC1`, the AC50 under setting [2] was 3.26 µM [rising, single point].

As to `O=C(O)c1cc(NC(=O)c2ccccc2F)cc(NC(=O)c2ccccc2F)c1`, the cell number change was -19.5%. Also, the AC50 under setting [2] is 0.731 µM [rising, single point].

As for `CCN1CCCC1CNC(=O)c1ccc2c(c1)N(Cc1ccccc1F)C(=O)c1ccccc1S2(=O)=O` (stereo not drawn), the cell number change turned out to be 36.6%. Besides, under setting [1], the AC50 is 29.1 µM [rising, single point].

Consider `O=S1(=O)C=CC(Nc2cccc(Cl)c2)C1` (stereo not drawn), for which the cell number change is -12.6%. Further, under setting [2], the half-maximal activity concentration (AC50) was 16.4 µM [falling, single point].

For `CSc1ccccc1OCc1cc(C(=O)N2CCC(c3ccncc3)CC2)no1`, the cell number change is -35.2%. Also, under setting [1], the half-maximal activity concentration (AC50) was 29.1 µM [falling, single point]. The concentration at half-maximal activity (AC50) under setting [2] was 8.2 µM [falling, partial curve].

`CC1c2cc3c(cc2CCN1CC(=O)Nc1ccccc1)OCCCO3` (stereo not drawn): the cell number change is -24.6%. Also, the half-maximal activity concentration (AC50) under setting [2] was 20.6 µM [falling, single point].

As for `COCC(C)OC(=O)/C(C#N)=C\c1coc2ccc(C)cc2c1=O` (stereo not drawn), the cell number change was 3.7%. Moreover, the AC50 under setting [2] is 0.731 µM [falling, full curve].

For the compound `Cc1onc(-c2c(Cl)cccc2Cl)c1C(=O)N(C)Cc1ccccc1`, the cell number change was determined as 36.8%. The AC50 under setting [1] is 0.146 µM [rising, full curve, poor fit]. Also, the AC50 under setting [2] is 6.51 µM [falling, single point].

In the case of `COc1ccc(S(=O)(=O)n2nc(-c3ccc(Cl)cc3)cc2N)cc1OC`, the cell number change is 3.43%. For the same compound, under setting [2], the half-maximal activity concentration (AC50) was 0.517 µM [rising, full curve].

`C=C(C)c1nc(N)nc(N)n1`: the cell number change is -13.6%. Also, the half-maximal activity concentration (AC50) under setting [1] was 0.326 µM [falling, full curve, poor fit]. Further, the concentration at half-maximal activity (AC50) under setting [2] was 3.66 µM [falling, full curve].

In the case of `COC(=O)/C=C1/N/C(=N\c2nc(C)cc(C)n2)N(c2ccccc2)C1=O`, the AC50 under setting [1] is 6.51 µM [rising, single point].

`CC1CCCC(C)N1CC(O)COCc1ccccc1` (stereo not drawn): the cell number change worked out at 22.9%. Moreover, the AC50 under setting [2] was 0.651 µM [falling, single point].

`Cc1ccc(S(=O)(=O)Nc2cc(C(F)(F)F)ccc2N2CCOCC2)c(C)c1`: the cell number change was found to be 31%. Moreover, under setting [1], the concentration at half-maximal activity (AC50) is 18.4 µM [rising, single point]. Under setting [2], the AC50 was 14.6 µM [rising, partial curve].

For the compound `O=C(CSCc1c(Cl)cccc1Cl)Nc1ccccc1-c1ccccc1`, the cell number change was -5.94%.

As for `Cc1ccc(S(=O)(=O)N2CCOCCOCCOCCOCCOCC2)cc1`, the cell number change stood at 3.81%. For the same compound, the concentration at half-maximal activity (AC50) under setting [2] is 0.164 µM [falling, full curve, poor fit].

Consider `Cc1cccc(NC(=O)c2cc(NC(=O)C3CCCCC3C(=O)O)ccc2Cl)n1` (stereo not drawn), for which the cell number change was found to be 6.61%. Also, the AC50 under setting [2] is 29.1 µM [rising, single point].

For the compound `Cc1ccc(Cn2c(NC(=O)c3ccco3)nc3ccccc32)cc1`, the cell number change was -44.8%. Moreover, under setting [1], the AC50 is 32.6 µM [falling, single point]. Moreover, the half-maximal activity concentration (AC50) under setting [2] is 18.4 µM [falling, single point].

With `Nc1sccc1C(=O)c1ccc(Cl)cc1`, the cell number change turned out to be 162%. For the same compound, the concentration at half-maximal activity (AC50) under setting [1] is 18.4 µM [rising, single point]. In addition, the half-maximal activity concentration (AC50) under setting [2] was 6.51 µM [rising, single point].

As for `COCCCNC(=O)COC(=O)c1ccc(-c2nc3ccccc3s2)s1`, the cell number change is -10.7%.

As to `COc1ccc(S(=O)(=O)N2CCOCC2)cc1NC(=O)c1cc(C)oc1C`, the cell number change was -3.75%.

Regarding `Cc1ccc(SCC(=O)Nc2ccc(-c3nnc(-c4ccco4)o3)cc2)cc1`, the cell number change was -19.3%. The concentration at half-maximal activity (AC50) under setting [2] was 29.1 µM [falling, single point].

As for `Nc1ccc(C(=O)N2CCCC2)cc1CS(=O)(=O)c1ccc(Cl)cc1`, the cell number change was determined as 52.1%. The AC50 under setting [1] was 5.17 µM [rising, full curve]. For the same compound, under setting [2], the concentration at half-maximal activity (AC50) is 5.17 µM [rising, full curve].

Turning to `O=C(NC(=S)Nc1ccc(F)c(Cl)c1)C1CC1`, the cell number change is -10.1%. Further, the half-maximal activity concentration (AC50) under setting [2] is 2.91 µM [rising, single point].

With `CCOc1ccc(CCNC(=O)COC(=O)COc2ccc(Br)cc2)cc1OCC`, the concentration at half-maximal activity (AC50) under setting [2] is 16.4 µM [rising, partial curve].

For `CCOc1ccc(S(=O)(=O)N/N=C\c2ccc3c(c2)OCO3)cc1`, the cell number change came to 13.8%. In addition, the half-maximal activity concentration (AC50) under setting [1] is 1.64 µM [rising, partial curve]. Besides, the concentration at half-maximal activity (AC50) under setting [2] is 3.26 µM [rising, single point].

With `O=C(CN1CCOCC1)Nc1ccccc1Sc1ccc(Cl)cc1`, the cell number change was -55.3%. Moreover, the concentration at half-maximal activity (AC50) under setting [1] is 18.4 µM [falling, single point]. The AC50 under setting [2] was 23.1 µM [falling, single point].

With `Cc1ccc(C)c(S(=O)(=O)NCCCc2ccccc2)c1`, the cell number change is 34.8%. In addition, the AC50 under setting [2] was 29.1 µM [rising, single point].

On to `COc1nonc1NC(=O)CSc1nc2ccccc2[nH]1`, for which the cell number change is -13.2%. Besides, the AC50 under setting [2] is 6.51 µM [falling, single point].

With `NC(=O)CC(NC(=O)c1cccc(Br)c1)c1ccc(NC2CCN(Cc3ccccc3)CC2)c([N+](=O)[O-])c1` (stereo not drawn), the cell number change was determined as 18%.

For the compound `Cc1ccc(C(=O)N/C(=C/c2ccc(-c3cccc([N+](=O)[O-])c3)o2)C(=O)NC(C)(C)C)cc1`, the cell number change is -3.17%. Moreover, under setting [2], the concentration at half-maximal activity (AC50) is 32.6 µM [falling, partial curve, poor fit].

Regarding `CC[C@H](C)C(N)c1cn(C(CCCN=C(N)N)C(=O)N2CCNCC2)nn1` (stereo partly drawn), the concentration at half-maximal activity (AC50) under setting [2] is 0.00461 µM [rising, full curve, poor fit].

Turning to `Cc1ccc(C(c2nnnn2C2CCCC2)N2CCc3ccccc32)cc1` (stereo not drawn), the cell number change is -25.7%. Moreover, the AC50 under setting [2] is 7.31 µM [falling, partial curve].

For the compound `CCOc1ccccc1NC(=O)c1cccc2ccccc12`, the cell number change was found to be 10.3%. Besides, under setting [2], the concentration at half-maximal activity (AC50) is 0.116 µM [rising, full curve, poor fit].

Source of the values: PubChem BioAssay AID2685 (National Center for Advancing Translational Sciences (NCATS), 2010).
